No constants are given. Whether binding was seen depends on the method and setting. In cells and extracts the contact can be indirect. Some results given as binding are weak or reduced against the parent protein; the word gives no strength.
Experiments:
[1] = target: human EGFR (Epidermal Growth Factor Receptor) (human) (UniProt P00533); test: co-immunoprecipitation (IP EGFR, WB CD44) from 468 cell extract
[2] = target: human EGFR (Epidermal Growth Factor Receptor) (human) (UniProt P00533); test: co-immunoprecipitation (IP EGFR, WB CD44) from 468 cell extract, FIG. 4H
[3] = target: human EGFR (Epidermal Growth Factor Receptor) (human) (UniProt P00533); test: co-immunoprecipitation (IP EGFR, WB CD44) from MDA-MB-231 cell extract, FIG. 12C

Sequences of proteins named here, by UniProt entry; tags and fusion partners are left off. A change or cut given only in a name is not applied to a line headed by its entry.
UniProt P16070: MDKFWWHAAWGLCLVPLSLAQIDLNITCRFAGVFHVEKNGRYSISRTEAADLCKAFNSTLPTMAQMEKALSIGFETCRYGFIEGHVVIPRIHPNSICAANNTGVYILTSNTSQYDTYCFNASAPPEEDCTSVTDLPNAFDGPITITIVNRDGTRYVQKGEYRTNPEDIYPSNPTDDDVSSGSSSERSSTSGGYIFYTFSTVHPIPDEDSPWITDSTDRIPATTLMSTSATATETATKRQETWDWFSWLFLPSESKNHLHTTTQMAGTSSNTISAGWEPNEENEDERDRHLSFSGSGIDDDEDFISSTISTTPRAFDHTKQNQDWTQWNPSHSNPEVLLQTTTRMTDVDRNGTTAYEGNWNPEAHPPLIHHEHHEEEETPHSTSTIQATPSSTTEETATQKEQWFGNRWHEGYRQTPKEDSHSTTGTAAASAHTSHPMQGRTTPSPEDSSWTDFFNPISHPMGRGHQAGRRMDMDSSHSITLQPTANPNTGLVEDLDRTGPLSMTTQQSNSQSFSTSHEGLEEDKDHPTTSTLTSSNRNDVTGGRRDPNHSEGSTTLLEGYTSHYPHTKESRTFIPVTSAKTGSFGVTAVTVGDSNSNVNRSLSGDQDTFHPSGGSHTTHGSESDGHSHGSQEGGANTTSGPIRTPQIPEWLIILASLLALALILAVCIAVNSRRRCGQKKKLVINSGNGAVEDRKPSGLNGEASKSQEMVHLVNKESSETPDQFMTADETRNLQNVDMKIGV

Measured: binding

human CD44 (from UniProt P16070 21-742) (receptor)
binds: all assays above
